# Reference: the supplement of paper PMC7666118
# The chains behind the UniProt entries cited, without tags or fusion partners. Where a name states a change or a piece, a line headed by the entry shows the natural chain unless it says otherwise.
# UniProt Q9NWH9: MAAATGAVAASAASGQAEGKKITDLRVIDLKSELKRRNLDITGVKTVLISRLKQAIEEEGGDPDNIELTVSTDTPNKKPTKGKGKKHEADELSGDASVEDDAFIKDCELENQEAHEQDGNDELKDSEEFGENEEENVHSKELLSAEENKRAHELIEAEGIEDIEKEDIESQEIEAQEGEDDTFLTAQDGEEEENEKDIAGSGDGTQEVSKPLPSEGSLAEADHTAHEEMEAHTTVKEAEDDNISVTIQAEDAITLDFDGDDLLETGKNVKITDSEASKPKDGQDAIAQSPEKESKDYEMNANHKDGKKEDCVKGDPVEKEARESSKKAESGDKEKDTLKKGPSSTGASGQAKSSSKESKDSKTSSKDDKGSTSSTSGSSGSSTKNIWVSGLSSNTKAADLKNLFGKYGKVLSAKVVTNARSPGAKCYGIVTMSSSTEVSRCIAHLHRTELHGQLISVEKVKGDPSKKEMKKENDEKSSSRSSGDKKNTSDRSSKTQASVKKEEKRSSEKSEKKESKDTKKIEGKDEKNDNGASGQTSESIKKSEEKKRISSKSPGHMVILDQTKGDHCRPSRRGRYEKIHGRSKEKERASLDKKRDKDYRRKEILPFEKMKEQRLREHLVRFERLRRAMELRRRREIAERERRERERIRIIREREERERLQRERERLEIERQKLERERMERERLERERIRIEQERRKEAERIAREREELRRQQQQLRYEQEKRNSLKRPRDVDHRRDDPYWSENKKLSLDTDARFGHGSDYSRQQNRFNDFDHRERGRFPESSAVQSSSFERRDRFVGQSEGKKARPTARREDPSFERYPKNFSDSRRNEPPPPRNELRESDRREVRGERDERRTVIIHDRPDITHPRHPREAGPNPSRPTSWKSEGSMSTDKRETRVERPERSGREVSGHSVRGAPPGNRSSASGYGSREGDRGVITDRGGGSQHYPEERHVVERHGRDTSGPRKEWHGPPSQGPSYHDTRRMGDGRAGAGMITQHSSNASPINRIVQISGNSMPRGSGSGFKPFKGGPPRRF
# Some of the results follow.
# Columns and labels:
# SLTM = SLTM (UniProt Q9NWH9); experiment: dose-dependent thermal stabilisation call (2D-TPP, DLPTP, 10% FDR) (binary (1 = stabilised)); higher = stabilised by the compound; settings: system: HL-60 intact cells; concentration range 0.04-10 µM
# STX2 = biological target: T1, STX2 (UniProt P32856); experiment: as above; settings: system: HL-60 intact cells; concentration range 0.04-10 µM
# T1 sequence (whole entry): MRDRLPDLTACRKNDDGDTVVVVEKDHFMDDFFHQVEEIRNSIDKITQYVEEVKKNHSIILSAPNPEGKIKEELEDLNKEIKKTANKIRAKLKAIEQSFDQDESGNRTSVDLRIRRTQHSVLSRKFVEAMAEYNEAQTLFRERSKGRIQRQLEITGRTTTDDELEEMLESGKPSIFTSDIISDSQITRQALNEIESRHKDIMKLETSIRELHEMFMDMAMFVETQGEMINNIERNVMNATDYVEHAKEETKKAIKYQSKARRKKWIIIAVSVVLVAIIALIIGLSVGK
smiles,measurement,setting,value
COc1ccc(Cn2ccc3ccc(C(=O)NO)cc32)cc1,dose-dependent thermal stabilisation call,SLTM,inactive: 0
same,dose-dependent thermal stabilisation call,STX2,inactive: 0
